Drawing on US20230054718A1, this text covers binding for four molecules.

Sequences of proteins named here, by UniProt entry; tags and fusion partners are left off. A change or cut given only in a name is not applied to a line headed by its entry. A line that says so, or that is headed by a name, gives the form on record, which may keep a tag or linker.
recombinant mouse Galectin-9 (O08573, form named): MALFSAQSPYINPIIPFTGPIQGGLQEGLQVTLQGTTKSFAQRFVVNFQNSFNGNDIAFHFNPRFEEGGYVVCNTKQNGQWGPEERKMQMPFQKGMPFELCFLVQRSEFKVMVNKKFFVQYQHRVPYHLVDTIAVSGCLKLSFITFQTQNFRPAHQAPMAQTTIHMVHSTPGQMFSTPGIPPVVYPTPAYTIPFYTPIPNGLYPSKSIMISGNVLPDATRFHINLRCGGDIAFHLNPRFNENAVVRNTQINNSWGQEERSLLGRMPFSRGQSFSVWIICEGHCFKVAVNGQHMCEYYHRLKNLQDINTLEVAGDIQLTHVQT
recombinant human Galectin-9 (O00182, form named): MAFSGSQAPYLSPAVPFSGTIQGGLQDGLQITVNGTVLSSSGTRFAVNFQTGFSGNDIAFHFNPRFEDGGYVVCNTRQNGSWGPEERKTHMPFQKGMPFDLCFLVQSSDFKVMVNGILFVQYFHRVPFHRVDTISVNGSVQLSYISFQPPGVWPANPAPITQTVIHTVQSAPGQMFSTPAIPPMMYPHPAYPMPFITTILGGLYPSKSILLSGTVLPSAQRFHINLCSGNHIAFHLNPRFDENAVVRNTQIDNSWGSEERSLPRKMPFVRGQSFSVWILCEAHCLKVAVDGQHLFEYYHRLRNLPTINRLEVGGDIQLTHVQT

In assay [1] the target is recombinant mouse Galectin-9 (mouse) (UniProt O08573). Kind of assay: binding to recombinant mouse Gal-9, OD read-out over antibody concentration (nM).
For assay [2], the target named is recombinant human Galectin-9 (human) (UniProt O00182). Kind of assay: EC50 titration, method not named (FIG. 3).
Assay [3] addresses recombinant mouse Galectin-9 (mouse) (UniProt O08573). The assay can be described thus: EC50 titration, method not named (FIG. 4).

Changes are numbered by the printed parent chain. No constants are given. Whether binding was seen depends on the method and setting. Some results given as binding are weak or reduced against the parent protein; the word gives no strength.

B1: HFB9-1hz4-hG1AA (antibody, V domains shown)
VH: QVQLVQSGAEVKKPGSSVKVSCKASGYTFTDYTIHWVRQAPGQGLEWMGWFYPGSHSIKYAQKFQGRVTITADKSTSTAYMELSSLRSEDTAVYYCARHGGYDGFDYWGQGTLVTVSS
VL: DIVMTQSPDSLAVSLGERATINCKSSQSLFYSTNQKNYLAWYQQKPGQPPKLLIYWASTRESGVPDRFSGSGSGTDFTLTISSLQAEDVAVYYCQQYYYFPYTFGQGTKLEIK
With B1, the binding result in assay [1] is “binds”.

B2: HFB9-1hz2-hG1AA (antibody, human IgG1, V domains shown)
VH: B1 VH with Y95F, A97T
VL: B1 VL
In the case of B2, the binding result in assay [2] and in assay [3] was “binds” in each case.

B3: HFB9-1hz1-hG1AA (antibody, human IgG1, V domains shown)
VH: B1 VH with S16A, I70M, K74T, T76I, S85R, E89D, Y95F, A97T
VL: B1 VL
In the case of B3, the binding entry in assay [2] and in assay [3] was “binds” throughout.

B4: HFB9-1hz3-hG1AA (antibody, human IgG1, V domains shown)
VH: B1 VH with A97T
VL: B1 VL
With B4, the binding entry in assay [2] and in assay [3] was “binds” in each case.
